Test results taken from paper PMC6155746 (Molecules : A Journal of Synthetic Chemistry and Natural …, 2017).
Read-outs that look alike come from different tables or passages of the source.

Assay: Permeability assay, everted rat gut model
Type: in vitro ADME, Wistar rats
Details: male, Wistar, 37 °C, A-B
Description: Male Wistar rats weighing 200–250 g were used in this research. Everted intestinal sacs were prepared by quickly removing the small intestine from starved rats killed under ether anesthesia. All experiments were carried out after pre-incubation at 37 ± 0.5 °C, with the duodenum and jejunum then excised, flushed-through several times with saline solution at room temperature, and placed immediately into simulated intestinal fluid (SIF). The intestine was gently everted over a steel rod and filled with fresh SIF. The sacs were preincubated in oxygenated buffer solution for 5 min and then placed in 100 mL of oxygenated SIF solution containing 0.0001 M (100 μM) of Compound 1 at 37 °C. Oxygen was bubbled with a pump to maintain viable tissue.
The everted intestinal sac was filled with 1.5 mL of SIF solution, while a test compound solution (0.0001 M) remained external to the everted sac. […] Both an initial and final sample of the outside solution were analyzed by HPLC.
The apparent intestinal permeability (Papp) was calculated according to Equation (2): (2) Papp=V/(A∗Co)dC/dt where Papp = Apparent Permeability (cm/s), V = Intestinal Volume (mL), A = Surface Area (cm^2), dC/dt = Concentration Gradient, and, Co = Initial Concentration (μg/mL).

With `COc1ccc2cc([C@H](C)C(=O)O)ccc2c1` [Naproxen, naproxen] the Papp at 120 min, 100 μM (duodenum, read-out: Papp Duodenum) was 30.2 ×10⁻⁶ cm/s and the Papp at 120 min, 100 μM (jejunum, read-out: Papp Jejunum) was 39.8 ×10⁻⁶ cm/s.
